# Experimental data taken from the supplement of paper PMC7858590.
# ± gives the standard deviation of the averaged measurements. Whole data set: some 3,800 compounds, median “cell shape (eccentricity) Z-score vs DMSO control” near 1.1, cut for the lowest 2% near -4.7. The list shows a part of the results.
# System: human monocyte-derived macrophages (M0)
# Assay: cell shape (eccentricity) Z-score vs DMSO control; higher = more elongated, M2-like morphology
# Conditions: 20 µM; 24 h; macrophage state: M0 (M-CSF)
row,Structure (SMILES),cell shape (Z-score)
1,N#Cc1cc2[nH]c(=O)c(=O)[nH]c2cc1[N+](=O)[O-],3.7
2,NS(=O)(=O)c1ccc(S(=O)(=O)Nc2cccc3c(Cl)c[nH]c23)cc1,2.03
3,COc1c(C(CC(C)C)OC(C)=O)ccc2c1C(=O)OCc1cc(C)cc(O)c1O2 (centres undefined),0.161
4,CN1CCc2cc3c(cc2C(=O)Cc2ccc4c(c2C1)OCO4)OCO3,-0.254
5,Cn1c(=O)/c(=C/c2ccccc2)n(C)c(=O)/c1=C/c1ccccc1,-1.76
6,CC(C)NCC(O)COc1cccc2ccccc12 (centres undefined),0.545
7,CN(C)CCC[C@@]1(c2ccc(F)cc2)OCc2cc(C#N)ccc21,3.94
8,Clc1ccc2c(c1)N=C(N1CCNCC1)c1ccccc1N2,-1.83
9,O=C(CCc1ccc(O)c(O)c1)C[C@H](CCc1ccc(O)c(O)c1)O[C@@H]1OC[C@@H](O)[C@H](O)[C@H]1O,1.69
10,CC(=O)OCC(=O)[C@@]1(OC(C)=O)[C@@H](C)CC2C3C[C@H](F)C4=CC(=O)C=C[C@]4(C)[C@@]3(F)[C@@H](O)C[C@@]21C (some centres undefined),-2.73
11,COc1cc(OC)c2c(OC)c(-c3ccc4c(c3)OCO4)c(=O)oc2c1,3.95
12,COc1ccccc1[C@@H]1C2=C(CC(C)(C)CC2=O)Nc2n[nH]c(C(F)(F)F)c21,-4.48
13,Sc1nc2ccccc2s1,2.85
14,C/C(=C\CC[C@@H](C)[C@H]1CC(OC2OCC(O)C(O)C2O)[C@@]2(C)C3CC[C@H]4C(C)(C)[C@@H](O[C@@H]5OC(CO)C(O)C(O)C5OC5OC(CO)C(O)C(O)C5O)CC[C@@]45C[C@@]35CC(O)[C@]12C)C(=O)OC1OC(CO)C(O)C(O)C1O (some centres undefined),1.04
15,CC(=O)OCC(=O)[C@@]12OC3(CCCC3)O[C@@H]1CC1C3CCC4=CC(=O)C=C[C@]4(C)[C@@]3(F)[C@@H](O)C[C@@]12C (some centres undefined),-2.37
16,C=C1CC[C@@H]2[C@](C)(CO[C@@H]3O[C@H](CO)[C@@H](O)[C@H](O)[C@H]3O)CCC[C@@]2(C)[C@@H]1CCC1=CCOC1=O,5.17
17,COc1cc(C(C)=O)cc(OC)c1O,2.81
18,CC(=O)c1ccc(O)c(C(N)=O)c1,1.25
19,CCC(C)SSc1ncc[nH]1 (centres undefined),3.69
20,CCCCOc1cc(C(=O)NCCN(CC)CC)c2ccccc2n1,0.217
21,O=C1CCc2cc(OCCCCc3nnnn3C3CCCCC3)ccc2N1,3.6
22,COc1ccc(C2=NC(c3ccc(Cl)cc3)C(c3ccc(Cl)cc3)N2C(=O)N2CCNC(=O)C2)c(OC(C)C)c1 (centres undefined),0.661
23,CN(C)CCC=C1c2ccccc2COc2ccccc21,1.65
24,CC1=CC(=O)[C@H]2C(C)(C)CCC[C@]2(C)[C@@]1(O)CO,2.33

row,Structure (SMILES),cell shape (Z-score)
1,O=C(OCc1ccccc1)c1ccccc1,3.02
2,CC(=O)Oc1ccc(C(c2ccc(OC(C)=O)cc2)c2ccccn2)cc1,4.24
3,FC(F)(F)c1cccc(-c2noc(-c3cc(-c4ccccc4)c(C(F)(F)F)s3)n2)c1,1.47
4,C=C1C(=O)O[C@@H]2C[C@H](C)[C@@]3(O)C[C@H](O)[C@@](C)(C[C@@H](OC(=O)C(C)C)[C@@H]12)O3,0.141
5,CN(C)CCOC(=O)COc1ccc(Cl)cc1,1.82
6,COC(=O)N/N=C/c1c[n+]([O-])c2ccccc2[n+]1[O-],4.22
7,O=C1CC(c2ccc(O)cc2)Oc2ccccc21 (centres undefined),2.6
8,CCN(CC)S(=O)(=O)c1ccc(C(=O)O)cc1,1.1
9,COc1ccc2c(c1)OCC(Cc1ccc(O)c(OC)c1)C2=O (centres undefined),1.32
10,Nc1c(Br)cc(Br)cc1CNC1CCC(O)CC1 (centres undefined),0.725
11,CCCC(=O)Nc1ncnc2c1ncn2C1OC2COP(=O)(O)OC2C1OC(=O)CCC (centres undefined),8.07
12,CCOC(=O)c1c(C)n(C)c2ccc(O)cc12,1.3
13,CC/C(=C(/CC)c1ccc(O)cc1)c1ccc(O)cc1,1.77
14,CN(CCOc1ccc(CC2SC(=O)NC2=O)cc1)c1ccccn1 (centres undefined),0.262
15,CN1CCN(C2=Nc3ccccc3Oc3ccc(Cl)cc32)CC1,1.46
16,COc1cc(/C=C/C(=O)O[C@@H]2C[C@@](O)(C(=O)O)C[C@@H](O)[C@@H]2O)ccc1O,1.6
17,COc1ccc2c(=O)cc(-c3ccccc3)oc2c1,1.88
18,COc1cc(/C=C/c2cc(O)cc(O)c2)ccc1O[C@@H]1O[C@H](CO)[C@@H](O)[C@H](O)[C@H]1O,3.67
19,Cc1cccc(C)c1NC(=O)CN1CCCCCC1,0.786
20,CC1(C)C(=O)N=C2c3ccccc3C(=O)C(=O)C21 (centres undefined),-1.97
21,CN1N=C(C(N)=O)CCC1=O,-1.26
22,COc1c(-c2coc3cc4c(cc3c2=O)CC(OC(C)=O)C(C)(C)O4)ccc2c1C=CC(C)(C)O2 (centres undefined),3.18
23,CN1CCN(CC/C=C2\c3ccccc3Sc3ccc(S(=O)(=O)N(C)C)cc32)CC1,-2.78
24,COc1cc2c(cc1-c1coc3c4c(ccc3c1=O)OC(C)(C)C=C4)OCO2,-5.49

row,Structure (SMILES),cell shape (Z-score)
1,CSc1nc(NC2CCCC2)c([N+](=O)[O-])c(NC2CCCC2)n1,-0.455
2,CCOC(=O)/C(=N/O)c1csc(N)n1,0.604
3,CCCCC/C=C\C/C=C\C(O)CCCCCCC(=O)O (centres undefined),-0.823 ± 3.3
4,CC1(C)C(=O)[C@@H]2C[C@@]3(O)C4=CC(=O)O[C@@H](c5ccoc5)[C@]4(C)CCC3[C@@](C)(C2=O)[C@H]1CC(=O)O (some centres undefined),2.12
5,C=C(C(=O)O)C(O)CCC1(C)C2CC3C(C2)C31C (centres undefined),2.85
6,COc1cc2c(cc1OC)C(C(C(=O)N(CCc1ccc(OC)c(OC)c1OC)CCc1ccc(OC)c(OC)c1OC)c1ccccc1)=NCC2 (centres undefined),-1.31
7,COCCCOc1cc(C[C@@H](C[C@H](N)[C@@H](O)C[C@H](C(=O)NCC(C)(C)C(N)=O)C(C)C)C(C)C)ccc1OC,-1.01
8,COc1ccc(C2Sc3ccccc3N(CCN(C)C)C(=O)C2OC(C)=O)cc1 (centres undefined),2.58
9,C[C@@H]1O[C@@H](Oc2cc(O)c3c(=O)c(O[C@@H]4O[C@@H](C)[C@H](O)[C@@H](O)[C@H]4O)c(-c4ccc(O)cc4)oc3c2)[C@H](O)[C@H](O)[C@H]1O,-0.711
10,CC(C)c1ccc2c(c1)CC[C@H]1[C@](C)(CN)CCC[C@]21C,-0.252
11,CC1(C)C2CC[C@]3(C)C(C(=O)C=C4[C@@H]5C[C@@](C)(C(=O)O)CC[C@]5(C)CC[C@]43C)[C@@]2(C)CC[C@@H]1OC(=O)CCC(=O)O (some centres undefined),2.95
12,Oc1cc(O)c2c(c1)O[C@H](c1ccc(O)c(O)c1)[C@@H](O)C2,-0.232
13,CC1CCC2C(C)(C)[C@@H](O)CC[C@]2(C)C12Cc1c(O)cc3c(c1O2)CN(C(CCC(=O)O)C(=O)O)C3=O (some centres undefined),0.909
14,COc1cc(O[C@@H]2O[C@H](CO)[C@@H](O)[C@H](O)[C@H]2O)c2c(=O)cc(-c3ccccc3)oc2c1OC,1.17
15,NS(=O)(=O)c1cccc2c1c([N+](=O)[O-])cc1nc(O)c(O)nc12,1.18
16,COC(=O)[C@]1(C)CCC[C@@]2(C)[C@H]1CC=C(C)[C@@H]2CCc1ccoc1,-0.638
17,CC(=O)N1CCN(C)CC1,0.925
18,C=C1C2CCC3C(CCC4[C@]3(C)CCC[C@]4(C)C(=O)O)(C2)C1OC(=O)/C(C)=C\C (some centres undefined),-1.42
19,COc1cc(O)c(C)c(O)c1,-0.139
20,CC(CCC(=O)O)[C@H]1CCC2C3C(=O)C[C@@H]4CC(=O)CC[C@]4(C)C3CC(=O)[C@@]21C (some centres undefined),1.32
21,O=C(NCCc1ccc(O)c(O)c1)C12CC3CC(CC(C3)C1)C2,0.196
22,O=C1CC2(CCCC2)CC(=O)N1CCNCC1COc2ccccc2O1 (centres undefined),-0.253
23,COc1cc2c(cc1OC)C(=O)C(CC1CCN(Cc3ccccc3)CC1)C2 (centres undefined),-1.94
24,COc1cc2c(=O)c(-c3ccc(O)cc3)coc2cc1O[C@@H]1O[C@@H](C)[C@H](O)[C@@H](O)[C@H]1O,2.24

# At a glance, part of the list above:
row,Structure (SMILES),cell shape (Z-score)
7,COCCCOc1cc(C[C@@H](C[C@H](N)[C@@H](O)C[C@H](C(=O)NCC(C)(C)C(N)=O)C(C)C)C(C)C)ccc1OC,-1.01
8,COc1ccc(C2Sc3ccccc3N(CCN(C)C)C(=O)C2OC(C)=O)cc1 (centres undefined),2.58
9,C[C@@H]1O[C@@H](Oc2cc(O)c3c(=O)c(O[C@@H]4O[C@@H](C)[C@H](O)[C@@H](O)[C@H]4O)c(-c4ccc(O)cc4)oc3c2)[C@H](O)[C@H](O)[C@H]1O,-0.711
10,CC(C)c1ccc2c(c1)CC[C@H]1[C@](C)(CN)CCC[C@]21C,-0.252

# Next structures:

row,Structure (SMILES),cell shape (Z-score)
1,O=c1cc(-c2ccccc2)oc2cccc(O)c12,3.32
2,COc1c(OC2OC(CO)C(O)C(O)C2O)ccc(O)c1C(=O)OCc1ccccc1O[C@@H]1O[C@H](CO)[C@@H](O)[C@H](O)[C@H]1O (some centres undefined),1.05 ± 1.1
3,C=C1CC[C@@H]2[C@](C)(CO)[C@H](O)CC[C@@]2(C)[C@@H]1CC(O)C1=CCOC1=O (some centres undefined),-2.2 ± 3.4
4,Cc1noc(NS(=O)(=O)c2ccc(N)cc2)c1C,2.76
5,COC(=O)c1c(C)c2c(c(C)c1O)OC(=O)c1c(C)c(Cl)c(O)c(Cl)c1O2,1.07
6,COC(=O)C(Cc1ccccc1)NC(=O)c1ccccc1 (centres undefined),1.39
7,COc1cc(/C=C/C(=O)O)cc(OC)c1O,1.22
8,COc1ccc2c(=O)c(CC(=O)O)coc2c1,4.13
9,C/C=C1\C(O[C@@H]2O[C@H](CO)[C@@H](O)[C@H](O)[C@H]2O)OC=C(C(=O)OC)C1CC(=O)OC[C@H]1O[C@@H](OCCc2ccc(O)cc2)[C@H](OC(=O)CC2C(C(=O)OC)=COC(O[C@@H]3O[C@H](CO)[C@@H](O)[C@H](O)[C@H]3O)/C2=C\C)[C@@H](O)[C@@H]1O (some centres undefined),0.709
10,CC1(C)Oc2ccc(C#N)cc2C(N2CCCC2=O)C1O (centres undefined),3.24
11,O=c1cc(-c2ccc(O)cc2)oc2cc(OC3OC(CO)C(O)C(O)C3OC3OCC(O)(CO)C3O)cc(O)c12 (centres undefined),4.18
12,COc1ccc([C@@H]2CNC(=O)C2)cc1OC1CCCC1,4.04
13,COc1ccc(C(=O)c2ccc(O)cc2)c(O)c1O,2.93
14,CCC(=O)NC1Cc2ccccc2C(c2ccccc2)C1 (centres undefined),3.31
15,N#C/C(=C\c1ccc(O)c(O)c1)C(N)=O,1.86
16,C/C(=C\CC(C)(C)CCC(=O)c1ccoc1)C(=O)O,0.165
17,COc1cc(O)c2c(c1)O[C@H](c1ccc(O)c(O)c1)[C@@H](O)C2=O,0.924
18,O=c1cc(-c2ccccc2F)[nH]c2cc3c(cc12)OCO3,5.49
19,C=CCSCC1Nc2cc(Cl)c(S(N)(=O)=O)cc2S(=O)(=O)N1 (centres undefined),2.47
20,O=C(O)c1cc2cc(OCc3ccccc3)ccc2[nH]1,1.63
21,C[C@@H]1CC2C3CCC4=CC(=O)C=C[C@]4(C)[C@@]3(F)[C@@H](O)C[C@]2(C)[C@H]1C(=O)CO (some centres undefined),2.43
22,C=CC(C)(C)c1[nH]c2ccccc2c1C1C(=O)C(=O)C(c2c[nH]c3c(CC=C(C)C)cccc23)C(=O)C1=O (centres undefined),2.71
